# Measurements taken from PubChem BioAssay AID493014 (National Center for Advancing Translational Sciences (NCATS), 2011).
# Out of some 340,000 compounds screened, about 170 (0.05%) were called active. The shares of active, inactive and inconclusive entries below differ from those in the screen. Calls come from the whole dose curve; as a rule, active = well fitted inhibition curve with a large enough effect in the signal ratio, with a control signal flat (not every such curve was filed as active); inconclusive = small, poorly fitted or top-dose-only effect, or effect the other way, or a change in a side signal; inactive = flat fitted curve, though single readings scatter; the % refers to the signal ratio. Potencies beside an inconclusive call are fits to weak or partial responses and may not hold up.
# Assay: qHTS Assay to Find Inhibitors of Chronic Active B-Cell Receptor Signaling;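 for activity change, negative = inhibition: plate controls were basal doxycycline-induced cells for no effect and cells given 10 µM MG132 for full effect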
# Conditions: ABC-DLBCL IkBa-CBG/CBR reporter, luminescence ratio (green luciferase fused to IkBa over red control in TMD8 lymphoma cells), 4 h; activity change, negative = inhibition: at 46.1 µM (top of the series)
# Outline: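 Doxycycline induced both beetle luciferases in TMD8 lymphoma cells; IKK-driven degradation limits the IkappaBalpha-fused green signal, while red luminescence normalises for cell number and nonspecific effects. Compounds tested up to 46 uM, 4 hrs.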
# Potency is the fitted concentration of half-maximal effect.
SMILES,"activity change, negative = inhibition",Potency
CCCCn1c(NC(=O)c2ccc(Br)o2)c(C(=O)OCC)c2nc3ccccc3nc21,inconclusive: 11.1%,
CC(C)(C)c1nc(NCc2ccc3c(c2)OCO3)c2nnn(Cc3ccccc3Cl)c2n1,inconclusive: 8.46%,
COc1cc([C@@H]2c3cc4c(cc3[C@H](O)[C@H]3COC(=O)[C@H]23)OCO4)cc(OC)c1OC,,"inconclusive: 0.0231 µM [falling, full curve, poor fit]"
Cc1ccc(-c2nc3ccccc3c(=O)n2-c2cccc(C)n2)cc1,inconclusive: -6.74%,
COc1ccc(-c2nc3ccccc3c(=O)n2-c2ccc(OC)cc2)cc1,inconclusive: 3.22%,
O=c1[nH]c(=O)n(-c2cccc3ccccc23)c(O)c1C=NCCCn1ccnc1,,"inconclusive: 29.1 µM [falling, single point]"
Cn1c(NN=O)nc2ccccc21,,"inconclusive: 35.5 µM [falling, single point]"
O=C(c1cc(S(=O)(=O)N2CCCCC2)ccc1F)N1CCC2(CC1)OCCO2,,"inconclusive: 32.6 µM [falling, single point]"
O=c1[nH]cc(F)c(=O)[nH]1,inconclusive: 0.95%,
CN(C)CCN=Cc1c(O)n(-c2cccc3ccccc23)c(=O)[nH]c1=O,inconclusive: 13%,
NP(=O)(Oc1ccc(Cl)cc1)Oc1ccc(Cl)cc1,inconclusive: -7.63%,
O=C1NC(=O)C(=Cc2ccccc2OCCOc2ccc([N+](=O)[O-])cc2)C(=O)N1,inconclusive: -5.21%,
Cc1ccccc1C(=O)NC(C(N)=O)P(=O)(OC(C)C)OC(C)C (stereo not drawn),inconclusive: 8.41%,
CCN1c2nc3ccccn3c(=O)c2CC2(C(=O)N(C)C(=O)N(C)C2=O)C1C (stereo not drawn),,"inconclusive: 6.51 µM [falling, partial curve, poor fit]"
Cc1ccc(/C=N/Nc2nc(Cl)c(Cl)cc2Cl)s1,inconclusive: 0.0467%,
CC(N)Cc1c[nH]c2cc3c(cc12)OCCO3 (stereo not drawn),,"inconclusive: 20.6 µM [falling, partial curve, poor fit]"
COc1ccc2c3c1OC1C(=O)CC[C@@]4(O)[C@@H](C2)N(C)CC[C@]314 (stereo partly drawn),inconclusive: -14.9%,
COC(=O)C1=C(c2ccc(F)cc2F)C[C@@H]2CC[C@H]1N2C(=O)NCCO,inconclusive: 11.6%,
CCCC[C@@H](C)C[C@@H](C)C(=O)N(C)[C@@H](CC(C)C)C(=O)N[C@H](C(=O)N(C)[C@H](C(=O)N1C[C@@H](O)C[C@H]1C(=O)N1C(=O)C=C[C@@H]1C)C(C)C)C(C)OC(C)=O (stereo partly drawn),,"inconclusive: 0.0231 µM [cytotoxic, full curve, poor fit]"
C=C(C)C(Cc1c(OC)ccc(C(=O)/C=C/c2ccc(O)cc2)c1O)OO (stereo not drawn),,"inconclusive: 23.1 µM [falling, single point]"
CCN(CC)S(=O)(=O)c1cccc(-c2nnc(SCc3nnc(-c4cccs4)o3)n2N)c1,inconclusive: -12.2%,
COc1cc2[nH]c(=O)n(-c3cccc(Cl)c3)c(=O)c2cc1OC,inconclusive: 5.26%,
NC(=O)OCCSc1nnc(-c2cccc(C(N)=S)c2)o1,inconclusive: 2.89%,
CC1(C)Cc2c(C#N)c(N3CCNCC3)nc(-c3ccco3)c2CS1,inconclusive: 15.4%,

# 3 entries from above, with tabs:
SMILES	activity change, negative = inhibition	Potency
C=C(C)C(Cc1c(OC)ccc(C(=O)/C=C/c2ccc(O)cc2)c1O)OO (stereo not drawn)		inconclusive: 23.1 µM [falling, single point]
CCN(CC)S(=O)(=O)c1cccc(-c2nnc(SCc3nnc(-c4cccs4)o3)n2N)c1	inconclusive: -12.2%	
COc1cc2[nH]c(=O)n(-c3cccc(Cl)c3)c(=O)c2cc1OC	inconclusive: 5.26%	

# Later entries.

SMILES,"activity change, negative = inhibition",Potency
OC12ONC(c3ccccn3)C1N1CCC2CC1 (stereo not drawn),,"inconclusive: 16.4 µM [falling, partial curve]"
CCN(CC)P(=O)(Oc1ccccc1)Oc1ccccc1,inactive,
C[N+](C)(C)Cc1ccccc1,inactive,
O=C1NC(=O)N(c2ccccc2)C(=O)/C1=C\c1ccc([N+](=O)[O-])o1,inconclusive: 5.2%,
CCC(COC(=O)c1cc(OC)c(OC)c(OC)c1)(c1ccccc1)N(C)C (stereo not drawn),inconclusive: 0.194%,
CCN1CCN(Cc2ccc(C)cc2C)CC1,inactive,
O=C1CN=C(c2ccc(Cl)cc2)c2oc3ccccc3c2N1,inconclusive: -1.92%,
Cn1cc(C(=O)Cc2ccccc2)c2ccccc21,inconclusive: 5.12%,
COc1ccc(Cl)cc1C(=O)C1CCCN(Cc2cnc(C)s2)C1 (stereo not drawn),inconclusive: 9.2%,
COc1cccc(N=Cc2c(O)n(Cc3ccco3)c(=O)[nH]c2=O)c1,,"inconclusive: 31.6 µM [falling, single point]"
CN(C)C1C(=O)C(C(N)=O)=C(O)C2(O)C(=O)C3=C(O)c4c(O)cccc4C(C)(O)C3C(O)C12 (stereo not drawn),inconclusive: 16%,
CCCCNC(=O)NC(C(N)=O)P(=O)(OCC)OCC (stereo not drawn),inactive,
Cc1ccc(C2SCC(=O)Nc3c2c(=O)[nH]n3C2CCOC(C)(C)C2)cc1 (stereo not drawn),inconclusive: 9.63%,
COc1ccc2c(c1)/C(=C/c1cnc[nH]1)C(=O)N2,,"inconclusive: 3.16 µM [rising, partial curve, poor fit]"
Cc1cc(C)nc(N2Cc3ccccc3C2=N)n1,inactive,
CCSc1nnc([C@@H](N)Cc2ccccc2)o1,inconclusive: 24.1%,
CCCCn1c(O)c(/C=N/NC(=O)c2ccncc2)c(=O)[nH]c1=S,inactive,
CCOC(=O)c1c(CSC(=N)N)n(C)c2cc(Br)c(OC(C)=O)cc12,,"inconclusive: 15.8 µM [falling, partial curve]"
COc1ccc(OC)c(N2C(=O)NC(=O)/C(=C\c3ccc([N+](=O)[O-])s3)C2=O)c1,,"inconclusive: 10 µM [rising, partial curve, poor fit]"
COc1ccc2c(c1)[nH]c1c(C)nccc12,inconclusive: 9.47%,
CCCCn1c(N)c(C(=O)NCc2cccs2)c2nc3ccccc3nc21,inconclusive: 18.6%,
COc1cc2c(cc1O)CC[C@@H]1[C@@H]2CC[C@]2(C)[C@@H](O)CC[C@@H]12,,"inconclusive: 8.91 µM [falling, partial curve]"
COCCCNC(=O)c1c(NC(=O)c2ccco2)n(Cc2ccccc2)c2nc3ccccc3nc12,inactive,
O=C(C(Cc1ccccc1)NS(=O)(=O)c1ccc(F)cc1)N1CCC2(CC1)OCCO2 (stereo not drawn),,"inconclusive: 1.64 µM [rising, partial curve, poor fit]"
